# According to the supplement of paper PMC9135407:
# Several values for one entry are separate records, joined by “and”; a condition that tells them apart may be missing. Identical values can stand only once. Counter-ions that a name gives are not always drawn. ± gives the standard deviation of the averaged measurements. The list shows a part of the results. Plates or batches differ in their baseline, so values are only roughly comparable.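 Assay uses culture-activated primary human stellate myofibroblasts; lipid droplet recovery indicates inactivation. Measured: proportion of Hoechst-counted cells over a plate-specific Bodipy cutoff, duplicate wells, DMSO and nortriptyline as per-plate negative and positive controls. A hit scores, control-normalized, above the plate's top-tenth-percentile nortriptyline wells or ranks among its three best wells. Final well concentrations not reported.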
# Tested on: primary human hepatic stellate cells (donor 1)
# Test: percent Bodipy-positive cells; higher = more lipid droplet accumulation
# Settings: 48 h
# Description: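 Primary lipid accumulation screen in primary human hepatic stellate cell myofibroblasts (donor 1, passage 8) in 384-well plates. 100 nL of library compound was pin-transferred into 30 µL medium in duplicate, and cells were treated for 48 h. The 'Scaled' score combines distance from plate baseline, toxicity and reproducibility penalties, and is normalised to nortriptyline (positive) and DMSO (negative) controls on each plate. A hit is defined as scaled >0.85 or among the top 3 wells per plate.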
# [1] = library stock concentration: 80 uM
# [2] = library stock concentration: 400 uM
# [3] = library stock concentration: 2 mM
# [4] = library stock concentration: 10 mM
# [5] = library stock concentration: 3.33 mM
# [6] = library stock concentration: 2.9 mM
# [7] = library stock concentration: 1 mM
compound,measurement,setting,value
C[C@]1(O)C[C@@H](c2nc(-c3ccc4ccc(-c5ccccc5)nc4c3)c3c(N)nccn32)C1,percent Bodipy-positive cells,[1],9.22 ± 0.28%
same,percent Bodipy-positive cells,[2],12.7 ± 4.8%
same,percent Bodipy-positive cells,[3],12.4 ± 4%
same,percent Bodipy-positive cells,[4],13.5 ± 6.9%
C[C@]1(O)C[C@@H](c2nc(-c3ccc4ccc(-c5ccccc5)nc4c3)c3c(N)nccn32)C1 [OSI-906 (Linsitinib)],percent Bodipy-positive cells,[5],9.54 ± 2%
same,percent Bodipy-positive cells,[4],24.5 ± 7.4%
C[C@@H]1CCO[C@H]2Cn3cc(C(=O)NCc4ccc(F)cc4F)c(=O)c(O)c3C(=O)N12,percent Bodipy-positive cells,[5],7.4 ± 3.9%
same,percent Bodipy-positive cells,[4],22.5 ± 1.4%
CO[C@H]1/C=C/O[C@@]2(C)Oc3c(C)c(O)c4c(O)c(cc(O)c4c3C2=O)NC(=O)/C(C)=C\C=C\[C@H](C)[C@H](O)[C@@H](C)[C@@H](O)[C@@H](C)[C@H](OC(C)=O)[C@@H]1C [Rifamycin sv],percent Bodipy-positive cells,[6],6.06 ± 0.63%
COc1cc2ncnc(Nc3cccc(Cl)c3)c2cc1OC [Tyrphostin AG 1478],percent Bodipy-positive cells,[4],83.82 ± 0.58%
C(=C\c1ccccc1)/CN1CCN(C(c2ccccc2)c2ccccc2)CC1 [Cinnarizine],percent Bodipy-positive cells,,29 ± 4.2%
same,percent Bodipy-positive cells,[4],66.7 ± 7%
O=C(O)[C@H](O)c1ccccc1 [R-(-)-Mandelic Acid],percent Bodipy-positive cells,[7],7.16 ± 0.91%
CCOC(=O)O[C@]1(C(=O)COC(=O)CC)CC[C@H]2[C@@H]3CCC4=CC(=O)C=C[C@]4(C)[C@H]3[C@@H](O)C[C@@]21C [Prednicarbate],percent Bodipy-positive cells,,8.63 ± 2.1%
"CCCCCC(=O)CC[C@H]1C=CC(=O)[C@@H]1C/C=C\CCCC(=O)O [13,14-dihydro-15-keto Prostaglandin A2]",percent Bodipy-positive cells,[7],10.4 ± 4.8%
O=C(Nc1ccccc1-c1cn2c(CN3CCNCC3)csc2n1)c1cnc2ccccc2n1,percent Bodipy-positive cells,[5],92.1 ± 3.7%
same,percent Bodipy-positive cells,[4],100%
Cc1nc2cc3nc(-c4cccs4)cnc3cc2n1C,percent Bodipy-positive cells,[5],9.79 ± 2.4%
Cc1ccc(C(=O)Nc2cccc(C(F)(F)F)c2)cc1-c1ccc2nc(NCCN3CCOCC3)ncc2c1,percent Bodipy-positive cells,[2],25.7 ± 2.1%
same,percent Bodipy-positive cells,[3],66.7 ± 8.2%
CC(=O)NCCCS(=O)(=O)O,percent Bodipy-positive cells,[4],33.3 ± 7.4%
COc1ccc2c(c1OC)C(=O)O[C@@H]2[C@H]1c2c(cc3c(c2OC)OCO3)CCN1C [Noscapine],percent Bodipy-positive cells,,24.6 ± 11%
COc1ccc2c(c1OC)C(=O)O[C@@H]2[C@H]1c2c(cc3c(c2OC)OCO3)CCN1C [Noscapine hydrochloride],percent Bodipy-positive cells,library stock concentration: 4.4 mM,3.98 ± 0.64%
same,percent Bodipy-positive cells,[4],13.5% and 4.25%
COc1ccc2c(c1OC)C(=O)O[C@@H]2[C@H]1c2c(cc3c(c2OC)OCO3)CCN1C [Noscapine hydrchloride],percent Bodipy-positive cells,[4],44.5 ± 16%
O=C(O)c1cc(/N=N/c2ccc(O)c(C(=O)O)c2)ccc1O [Olsalazine Sodium],percent Bodipy-positive cells,[5],6.8 ± 0.18%
same,percent Bodipy-positive cells,[4],44.1 ± 4.9%
O=C(O)c1cc(/N=N/c2ccc(O)c(C(=O)O)c2)ccc1O,percent Bodipy-positive cells,[4],30.5 ± 1.3%
CCCCCCCCCCCCCCCC(=O)OC(CC(=O)O)C[N+](C)(C)C (racemic) [Palmitoyl-DL-Carnitine chloride],percent Bodipy-positive cells,[4],75.1 ± 5.1%
C/C=C1\C(=O)C[C@H]2[C@@H]3CCC4=CC(=O)CC[C@]4(C)[C@H]3CC[C@]12C [Guggulsterone],percent Bodipy-positive cells,[4],16.3 ± 0.76%
CN(C)CC(=O)Nc1ccc2[nH]c(=O)c3ccccc3c2c1,percent Bodipy-positive cells,[5],9.13% and 25.4%
CC/C=C\C/C=C\C/C=C\CCCCCCCCCC(=O)O [Eicosatrienoic acid (20:3 n-3)],percent Bodipy-positive cells,[7],3.46 ± 0.93%
CN1C2CCC1CC(OC(c1ccccc1)c1ccccc1)C2.CS(=O)(=O)O (centres undefined) [Benztropine mesylate],percent Bodipy-positive cells,[4],96.73 ± 0.91%
N#Cc1cc2c(OCC(O)CN3CCN(C(c4ccccc4)c4ccccc4)CC3)cccc2[nH]1 (centres undefined),percent Bodipy-positive cells,library stock concentration: 10.7 mM,77.8 ± 1.8%
CC(C)(C)NCC(O)COc1cccc2c1CCC(=O)N2 (centres undefined) [Carteolol hydrochloride],percent Bodipy-positive cells,,30.4 ± 7.5%
CC(C)(C)NCC(O)COc1cccc2c1CCC(=O)N2 (centres undefined) [Carteolol HCl],percent Bodipy-positive cells,[5],12.3 ± 6.5%
same,percent Bodipy-positive cells,[4],27.4 ± 2.7%
O=C(CO)N1CCC(c2n[nH]c(-c3ccc(Cl)cc3)c2-c2ccncn2)CC1,percent Bodipy-positive cells,[2],17 ± 2.7%
same,percent Bodipy-positive cells,[3],19.7 ± 9.4%
same,percent Bodipy-positive cells,[4],16.3 ± 4%
CNC(=O)c1cc(Oc2ccc(NC(=O)Nc3ccc(Cl)c(C(F)(F)F)c3)c(F)c2)ccn1 [Regorafenib (BAY 73-4506)],percent Bodipy-positive cells,[5],9.08 ± 3.8%
same,percent Bodipy-positive cells,[4],23.2 ± 2.5%
CNC(=O)c1cc(Oc2ccc(NC(=O)Nc3ccc(Cl)c(C(F)(F)F)c3)c(F)c2)ccn1 [Regorafenib],percent Bodipy-positive cells,[1],8.29 ± 0.14%
same,percent Bodipy-positive cells,[2],18.4 ± 3.3%
same,percent Bodipy-positive cells,[3],10.3 ± 0.32%
same,percent Bodipy-positive cells,[4],11.8 ± 3.2%
CC(C)C[C@H](NC(=O)[C@H](O)[C@H](N)Cc1ccccc1)C(=O)O [Epibestatin hydrochloride],percent Bodipy-positive cells,[4],42.2 ± 4.6%
C=C1c2c(Cl)ccc(O)c2C(=O)C2=C(O)[C@]3(O)C(=O)C(C(N)=O)=C(O)[C@@H](N(C)C)[C@@H]3[C@@H](O)[C@H]12.O=C(O)c1cc(S(=O)(=O)O)ccc1O [Meclocycline sulfosalicylate],percent Bodipy-positive cells,,22 ± 3%
same,percent Bodipy-positive cells,[6],18.5 ± 0.45%
same,percent Bodipy-positive cells,[4],34.8 ± 18%
CCCCCCCCCCCCCCNC(=O)C1CCCCC1 [N-Cyclohexanecarbonyltetradecylamine],percent Bodipy-positive cells,[7],7.09 ± 1.9%
CNC[C@H](O)c1ccc(O)c(O)c1 [Adrenaline bitartrate],percent Bodipy-positive cells,library stock concentration: 6 mM,2.89 ± 1.7%
same,percent Bodipy-positive cells,[4],9.96 ± 1.4%
CNC[C@H](O)c1ccc(O)c(O)c1 [(?)-Epinephrine hydrochloride],percent Bodipy-positive cells,[4],74.2 ± 2.5%
CNC[C@H](O)c1ccc(O)c(O)c1 [Epinephrine Bitartrate],percent Bodipy-positive cells,[5],10.1 ± 3.5%
same,percent Bodipy-positive cells,[4],43.3 ± 30%
CNC[C@H](O)c1ccc(O)c(O)c1 [Epinephrine HCl],percent Bodipy-positive cells,[5],5.65 ± 1.9%
same,percent Bodipy-positive cells,[4],11.7 ± 4.3%
CNC[C@H](O)c1ccc(O)c(O)c1 [(-)-Epinephrine bitartrate],percent Bodipy-positive cells,[4],68.1 ± 3.6%
